Measured values taken from PubChem BioAssay AID504444 (National Center for Advancing Translational Sciences (NCATS), 2011).
About 7,500 (2.1%) of roughly 360,000 compounds were called active. The inconclusive results got no clear call from the source; some entries with a clear call stand among them for comparison. Calls come from the whole dose curve; as a rule, active = well fitted inhibition curve with a large enough effect; inconclusive = small, poorly fitted or top-dose-only effect, or effect the other way; inactive = flat fitted curve, though single readings scatter. Potencies of inconclusive entries are doubtful fits and often do not repeat.

Assay: Nrf2 qHTS screen for inhibitors; note: nearly all actives have a fitted effect of over 60% in size
Details: A549 ARE-Fluc reporter, luciferase luminescence, 18-24 h; activity change, negative = inhibition: at 46 µM (top of the series)
In short: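 A549 ARE_Fluc cells (5000/well, 5% FBS OPTI-MEM) pre-incubated 2 h, then treated with compounds 18-24 h at 37C/5% CO2 in concentration-response. CellTiter-Fluor viability read first; BugLite luciferase luminescence after 15 min at room temperature gives Nrf2 activity.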
% is set by controls: 0 for no effect and ±100 for the full control effect; potency is the fitted concentration of half-maximal effect.

Question: Which “activity change, negative = inhibition” value does the source give for `c1ccc(CCn2nnnc2CN2CCC(n3nnc4ccccc43)CC2)cc1` here?
Answer: inactive: -17.3%

Question: For `CC(C)[C@H]1CC2C3CC=C4C[C@@H](O)CC[C@]4(C)C3CC[C@]2(C)[C@H]1O` (some centres undefined), which Potency is on record?
Answer: inconclusive: 16.4 µM [falling, single point]

Question: With `Cc1ccc(CNC(=O)CCCn2c(=O)c3sccc3n(CC(=O)Nc3c(C)cccc3C)c2=O)cc1` as the compound, how does the “activity change, negative = inhibition” value read?
Answer: inactive: -19.9%

Question: With `Cc1ccc2c(c1)C1CN(C)CCC1N2C(=O)Cn1cnc2c1c(=O)n(C)c(=O)n2C` (centres undefined) as the compound, how does the Potency read?
Answer: inconclusive: 3.26 µM [activator, full curve, poor fit]

Question: With `Cc1sc2ncnc(N3CCN(S(=O)(=O)c4ccc(Br)cc4)CC3)c2c1C` as the compound, how does the Potency read?
Answer: active: 11.6 µM

Question: Which Potency does the source give for `O=C(c1cc(-c2ccc(Cl)cc2)n(-c2ccc(Cl)cc2Cl)n1)N1CCOCC1` here?
Answer: inconclusive: 16.4 µM [falling, single point]

Question: For `C[C@H]1CCCC(=O)CCCCCc2cc(O)cc(O)c2C(=O)O1`, which “activity change, negative = inhibition” value is on record?
Answer: inactive: 0.574%

Question: Which Potency does the source give for `COC(=O)c1ccc(NC(=O)CSc2nc3ccc(N4C(=O)C5C6C=CC(C6)C5C4=O)cc3s2)cc1` (centres undefined) here?
Answer: active: 18.4 µM

Question: With `CCN(CC)C(=O)c1ccc(NC(=O)Nc2ccccc2F)cc1` as the compound, how does the Potency read?
Answer: inconclusive: 1.16 µM [activator, full curve]

Question: For `CC(=O)N1CCC2(CC1)CC(=O)c1cc(OCC(=O)N3CCN(C)CC3)ccc1O2`, which “activity change, negative = inhibition” value is on record?
Answer: inactive: -5.14%

Question: With `C[C@]12CCC3C(CCC4=CC(O)CC[C@@]43/C=N/O)C1(O)CCC2C1=CC(=O)OC1` (some centres undefined) as the compound, how does the Potency read?
Answer: inconclusive: 5.17 µM [falling, full curve, poor fit]

Question: With `CCOC(=O)N1CCN(C(=O)Cn2ncc3c4ccccc4n(Cc4ccc(F)cc4)c3c2=O)CC1` as the compound, how does the Potency read?
Answer: inconclusive: 20.6 µM [falling, single point]

Question: For `C1=C(CCNCc2ccccc2)CCCC1`, which “activity change, negative = inhibition” value is on record?
Answer: inactive: 15.1%

Question: For `NC1(C(=O)O)CCCc2ccc(N(CCCl)CCCl)cc21` (centres undefined), which “activity change, negative = inhibition” value is on record?
Answer: inactive: -1.3%

Question: With `Cc1ccc(C(C)C)c(OCC(=O)N2CCN(Cc3nc4cc([N+](=O)[O-])ccc4n3C)CC2)c1` as the compound, how does the Potency read?
Answer: inconclusive: 18.4 µM [falling, partial curve, poor fit]

Question: Which Potency does the source give for `CCN(CC)c1ccc(/C=C2\C(=O)NC(=S)N(C)C2=O)o1` here?
Answer: inconclusive: 13 µM [activator, partial curve]

Question: With `CN1CCCC1c1ccc(=O)[nH]c1` (centres undefined) as the compound, how does the “activity change, negative = inhibition” value read?
Answer: inactive: 7.49%

Question: With `Cc1ccc(NC(=O)COc2ccc(-c3nn(C)c(=O)c4ccccc34)cc2)c(C)c1` as the compound, how does the Potency read?
Answer: active: 18.4 µM

Question: For `O=C(c1cc(C(=O)NCc2ccc(Cl)cc2)c(=O)n(Cc2ccc(Cl)cc2)c1)c1cc(F)ccc1O`, which Potency is on record?
Answer: inconclusive: 18.4 µM [falling, single point]

Question: With `Cc1ccc(C)c(NP(=O)(Oc2ccccc2)Oc2ccccc2)c1` as the compound, how does the Potency read?
Answer: active: 20.6 µM

Question: With `CCC(C)NC(=O)c1c(N)n(CCCOC)c2nc3ccccc3nc12` (centres undefined) as the compound, how does the Potency read?
Answer: inconclusive: 10.3 µM [falling, partial curve, poor fit]

Question: For `O=[N+]([O-])c1cc(F)c(N2CCCC2)cc1Br`, which Potency is on record?
Answer: inconclusive: 9.2 µM [falling, partial curve]

Question: With `COc1ccc(C2=NCC(=O)N(CC(=O)NCc3ccco3)c3sc4c(c32)CCCC4)cc1` as the compound, how does the Potency read?
Answer: active: 20.6 µM

Question: With `Nc1nc(N)nc(-c2ccc(Oc3ccccc3)cc2)n1` as the compound, how does the Potency read?
Answer: inconclusive: 11.6 µM [falling, partial curve, poor fit]

Question: Which Potency does the source give for `COC1=C(OC)[C@]23CCc4ccc(OC)c(OC)c4[C@]2(CCN3C)CC1=O` here?
Answer: inconclusive: 32.6 µM [falling, single point]

Question: For `COc1cccc(CSc2nc(-c3ccccc3OC)nc3c2Cc2c(CO)cnc(C)c2O3)c1`, which Potency is on record?
Answer: inconclusive: 29.1 µM [falling, single point]

Question: Which Potency does the source give for `COc1cc2c(cc1OC)C1C(=O)c3ccc4c(c3OC1CO2)CC(C(C)C)O4` (centres undefined) here?
Answer: active: 0.092 µM

Question: Which Potency does the source give for `Cc1ccc(C)c(N)c1` here?
Answer: inconclusive: 32.6 µM [activator, partial curve, poor fit]

Question: With `O=P(OC1CCCCC1)(OC1CCCCC1)C(O)c1c(Cl)cccc1Cl` (centres undefined) as the compound, how does the Potency read?
Answer: inconclusive: 18.4 µM [falling, single point]

Question: For `CCC12CN3CCN(CC(C3)/C1=N/NC(=O)c1ccncc1)C2`, which “activity change, negative = inhibition” value is on record?
Answer: inactive: 6.13%

Question: With `Cc1cccc(N2C(=O)NC(=O)/C(=C/c3cc4c(cc3[N+](=O)[O-])OCO4)C2=O)c1` as the compound, how does the “activity change, negative = inhibition” value read?
Answer: inactive: 0.326%

Question: Which Potency does the source give for `Cc1ccc(-c2cc(C(F)F)n3ncc(C(=O)N4CCc5ccccc5C4)c3n2)cc1` here?
Answer: inconclusive: 32.6 µM [falling, single point]

Question: With `Cc1nn(Cc2ccccc2)c(C)c1C(=O)OCC(=O)Nc1ccccc1SCC#N` as the compound, how does the “activity change, negative = inhibition” value read?
Answer: inactive: 4.87%

Question: Which Potency does the source give for `Cc1ccc2c(c1)c(C1=c3ccccc3=NC1=O)c(O)n2C` here?
Answer: inconclusive: 25.9 µM [falling, single point]

Question: For `COc1ccc(-c2cc(=Nc3cccc(C(=O)O)c3)c3cc(C)ccc3o2)cc1`, which Potency is on record?
Answer: inconclusive: 13 µM [activator, partial curve]

Question: Which Potency does the source give for `CC(C)C[C@H]1C(=O)N2CCC[C@H]2[C@]2(O)O[C@](NC(=O)C3C=C4c5cccc6[nH]c(Br)c(c56)C[C@H]4N(C)C3)(C(C)C)C(=O)N12` (some centres undefined) here?
Answer: active: 18.4 µM

Question: For `C[C@]12CC[C@H](O)C[C@H]1CC[C@@H]1[C@@H]2CC[C@]2(C)[C@@H](C3=CC(=O)OC3)CC[C@]12O`, which Potency is on record?
Answer: active: 0.259 µM

Question: For `C=CCc1ccc(OCCn2nnc3ccccc32)c(OC)c1`, which Potency is on record?
Answer: inconclusive: 29.1 µM [falling, partial curve, poor fit]

Question: For `O=C(O)c1cc[c]([Hg][Cl])cc1`, which “activity change, negative = inhibition” value is on record?
Answer: inactive: 14.7%

Question: For `C=Cn1ccnc1P(=S)(c1ccccc1)c1nccn1C=C`, which Potency is on record?
Answer: inconclusive: 6.51 µM [activator, single point]

Question: Which Potency does the source give for `COc1ccc(N/N=C/c2c(O)n(-c3ccc(C)c(C)c3)c(=O)[nH]c2=O)cc1` here?
Answer: inconclusive: 18.4 µM [falling, single point]

Question: With `O=[N+]([O-])c1cc(Cl)c(O)c(-[n+]2c(-c3ccccc3)cc(-c3ccccc3)cc2-c2ccccc2)c1` as the compound, how does the Potency read?
Answer: inconclusive: 29.1 µM [falling, single point]

Question: Which Potency does the source give for `CCOC(=O)CC1c2ccccc2-n2nncc2CN1Cc1ccc(OC)cc1` (centres undefined) here?
Answer: active: 23.1 µM

Question: For `NC(=O)c1ccc(NC(=O)COC(=O)C2(c3ccccc3F)CCCC2)cc1`, which Potency is on record?
Answer: inconclusive: 11.6 µM [falling, partial curve]
